Results from US20030022853A1.
No constants are given. Whether binding was seen depends on the method and setting. Some results given as binding are weak or reduced against the parent protein; the word gives no strength.

By UniProt entry, the sequences of proteins in these tests, tags left out.
UniProt P06492: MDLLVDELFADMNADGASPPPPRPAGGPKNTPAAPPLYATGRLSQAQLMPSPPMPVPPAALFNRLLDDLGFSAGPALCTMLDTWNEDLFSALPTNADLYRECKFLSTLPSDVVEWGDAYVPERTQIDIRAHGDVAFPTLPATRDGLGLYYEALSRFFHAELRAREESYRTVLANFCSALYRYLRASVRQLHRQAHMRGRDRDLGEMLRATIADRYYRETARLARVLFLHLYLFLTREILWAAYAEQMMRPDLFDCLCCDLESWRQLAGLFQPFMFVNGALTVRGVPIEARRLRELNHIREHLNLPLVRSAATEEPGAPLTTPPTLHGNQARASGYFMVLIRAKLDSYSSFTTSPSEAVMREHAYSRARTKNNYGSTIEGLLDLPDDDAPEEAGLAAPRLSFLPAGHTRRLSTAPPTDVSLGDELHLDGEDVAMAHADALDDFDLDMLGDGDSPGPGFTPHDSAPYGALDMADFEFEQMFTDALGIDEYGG

Tests used:
[1] = target: Oct-1 and HCF from HeLa cell nuclear extract, Oct-1 bound to … DNA (human) (UniProt P14859); test: laser fluorescence quenching assay, VP16 added to HeLa nuclear extract and JD41F/42F
[2] = target: Oct-1 and HCF from HeLa cell nuclear extract, Oct-1 bound to … DNA (human) (UniProt P14859); test: laser fluorescence quenching assay, VP16 added to HeLa nuclear extract and JD45F/46F

herpes simplex virus type 1 (HSV-1) protein VP16 (HSV-1 virion extract containing 80% pure VP16) (from UniProt P06492 1-490)
binding [1]: binds | binding [2]: binds
